Test results published in patent publication US20160250185A1, “PHARMACEUTICAL COMPOSITION FOR C[…] MASS GAIN […]-PHENOTROPIL” (LATVIAN INSTITUTE OF ORGANIC SYNTHESIS, priority 2013, published 2016).
At least one compound was matched to its structure with a doubt left.

Key:
[1] = Open field test, locomotor activity; assay type: in vivo; conditions: single i.p. injection
Method: Locomotor activity was tested in an open field test 30, 60, 120, 180 and 240 min after a single i.p. injection of the racemic phenotropil and R- and S-enantiomers (FIG. 1A,B,C,D). […] R-phenotropil in 5, 10 and 50 mg/kg doses induced a statistically significant increase in locomotor activity in comparison with the control animals [F(3.31)=10.37, p<0.0001] (FIG. 1A,C). Furthermore, R-phenotropil in the dose of 50 mg/kg retained a statistically significant increase in locomotor activity for up to 240 min [F(9.80)=24.03, p<0.0001] (FIG. 1B,D).

[2] = Forced swimming test (duration of immobility), antidepressive effect; assay type: in vivo; conditions: 30 min after i.p. injection; doses tested 10, 50 and 100 mg/kg
Method: The antidepressive effect of the racemic, R- and S-phenotropil was tested in a forced swimming test (by determining the duration of immobility) 30 min after the i.p. injection of the compounds in doses 10, 50 and 100 mg/kg (FIG. 2).

Row | SMILES | doses inducing statistically significant increase in locomotor activity vs control animals [1] | doses significantly reducing duration of immobility vs control group [2]
1 | NC(=O)CN1C[C@@H](c2ccccc2)CC1=O [R-phenotropil] | 5, 10 and 50 mg/kg | 50 and 100 mg/kg
2 | NC(=O)CN1CC(c2ccccc2)CC1=O (racemic) [Phenotropil racemate] | 10 and 50 mg/kg | –
